For 18 compounds, T/C and survivor count results are on record in PubChem BioAssay AID200 (DTP/NCI, 2004).

Structures are written as SMILES. The list shows only some results of the screen, not a fair sample: it gathers tests that were run many times, whatever their T/C, doses with no T/C, and many T/C values between a quarter and a half above the control. Other doses and runs of a compound stand elsewhere. T/C gives the treated animals as a percentage of the vehicle group. Some entries give survivors of the animals treated and no T/C: the source files T/C as zero there, which appears to mark a toxic dose or a test without result, not a measured value. Some survivor counts are full or nearly so, which does not show that the dose was tolerated: the source hardly ever lists a survival T/C far under the control, and the zero likely stands for such cases as well. Survivors were counted at the toxicity check, usually on the fifth day, unless a day is given; later deaths do not show. Schedule codes are those of the source, taken here to give the interval after Q, in days (D) or hours (H), and the number of doses after X. Some entries hold several experiments; the values are given in rising order. For survival time, the PubChem record calls one and a half times the control and up active, and a quarter to a half above the control has no call in these data; cut-offs in other NCI protocols can differ.

For this assay, the system named is B6C3F1 mice, B16 melanoma ip, median survival T/C. The experiment in a line: NCI In Vivo Anticancer Drug Screen. Data for tumor model B16 Melanoma (intraperitoneal) in B6C3F1 mice. Particulars: T/C endpoint: median survival time, higher T/C = longer survival. The procedure, abridged:
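Readout: survival or tumor size in treated mice relative to vehicle controls (T/C). Model uses transplantable tumors grown in mice.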

[1] abbreviates: dose: 100.0 mg/kg/injection, schedule: Q01DX009 (ip), vehicle: saline.
Where [2] appears, read: dose: 100.0 mg/kg/injection, schedule: Q01DX009 (ip), vehicle: saline with Tween-80.
Where [3] appears, read: dose: 200.0 mg/kg/injection, schedule: Q01DX009 (ip), vehicle: saline with Tween-80.
The mark [4] stands for this setting: dose: 400.0 mg/kg/injection, schedule: Q01DX009 (ip), vehicle: saline with Tween-80.
Where [5] appears, read: dose: 100.0 mg/kg/injection, schedule: Q01DX009 (ip), vehicle: Klucel (hydroxypropylcellulose) (HPC).
The mark [6] stands for this setting: dose: 25.0 mg/kg/injection, schedule: Q01DX009 (ip), vehicle: saline with Tween-80.
The mark [7] stands for this setting: dose: 50.0 mg/kg/injection, schedule: Q01DX009 (ip), vehicle: saline with Tween-80.
The mark [8] stands for this setting: dose: 50.0 mg/kg/injection, schedule: Q01DX009 (ip), vehicle: water.

Consider `O=P1(N(CCCl)CCCl)NCCCO1` (centres undefined), for which the T/C (dose: 25.0 mg/kg/injection, schedule: Q01DX009 (ip), vehicle: saline) is 148 % of control; the T/C (dose: 37.5 mg/kg/injection, schedule: Q01DX005 (iv), vehicle: saline) was 125 % of control; the T/C (dose: 75.0 mg/kg/injection, schedule: Q01DX005 (ip), vehicle: saline) is 148 % of control; the T/C (dose: 100.0 mg/kg/injection, schedule: Q01DX001 (ip), vehicle: saline) was 131 and 146 % of control; the T/C (dose: 150.0 mg/kg/injection, schedule: Q01DX001 (ip), vehicle: saline) was 145 % of control; the T/C (dose: 150.0 mg/kg/injection, schedule: Q01DX001 (iv), vehicle: saline) is 134 % of control. In addition, the survivor count is, setting by setting: under setting [1], 10 of 10; (dose: 150.0 mg/kg/injection, schedule: Q01DX005 (iv), vehicle: saline) 10 of 10.

Turning to `CC(Br)C(=O)NC(Cc1ccccc1)C(=O)O` (centres undefined), the survivor count runs as follows: under setting [2], 10 of 10; under setting [3], 10 of 10; under setting [4], 10 of 10.

Consider `CC1CN1P1(N2CC2C)=NP(N2CC2C)(N2CC2C)=NP(N2CC2C)(N2CC2C)=N1` (centres undefined), for which the survivor count (dose: 16.0 mg/kg/injection, schedule: Q02DX009 (ip), vehicle: saline) is recorded as 10 of 10. Further, the T/C (dose: 32.0 mg/kg/injection, schedule: Q01DX009 (ip), vehicle: saline) is 125 % of control.

Consider `Cn1cnc([N+](=O)[O-])c1Sc1nc(N)nc2c1ncn2C1OC(CO)C(O)C1O` (centres undefined), for which the survivor count runs as follows: (dose: 25.0 mg/kg/injection, schedule: Q01DX009 (ip), vehicle: suspension in saline) 10 of 10; (dose: 50.0 mg/kg/injection, schedule: Q01DX009 (ip), vehicle: suspension in saline) 10 of 10.

On to `[N-]=[N+]=CC(=O)CCC(NC(=O)OCc1ccccc1)C(=O)OCc1ccccc1` (centres undefined), for which the survivor count is on record as 10 of 10 under setting [5]; 8 of 10 (dose: 200.0 mg/kg/injection, schedule: Q01DX009 (ip), vehicle: Klucel (hydroxypropylcellulose) (HPC)); 6 of 10 (dose: 400.0 mg/kg/injection, schedule: Q01DX009 (ip), vehicle: Klucel (hydroxypropylcellulose) (HPC)).

For `COc1cc2c[n+](C)c3c(c2cc1OC)Cc1cc2c(cc1-3)OCO2`, the T/C by setting is: under setting [6], 128 % of control; under setting [7], 133 % of control. Besides, the survivor count was 10 of 10 under setting [2]; 10 of 10 (dose: 100.0 mg/kg/injection, schedule: Q01DX009 (ip), vehicle: suspension in saline); 4 of 10 (dose: 200.0 mg/kg/injection, schedule: Q01DX009 (ip), vehicle: suspension in saline).

As to `COC1C(O)CC(OC2CC(Oc3cc4cc5c(c(O)c4c(O)c3C)C(=O)[C@@H](OC3CC(OC4CC(OC6CC(C)(O)C(OC(C)=O)C(C)O6)C(O)C(C)O4)C(O)C(C)O3)[C@H]([C@H](OC)C(=O)[C@@H](O)[C@@H](C)O)C5)OC(C)C2OC(C)=O)OC1C` (some centres undefined), the T/C (dose: 0.02 mg/kg/injection, schedule: Q01DX009 (ip), vehicle: Klucel (hydroxypropylcellulose) (HPC)) was 141 % of control. For the same compound, the survivor count (dose: 0.32 mg/kg/injection, schedule: Q01DX009 (ip), vehicle: Klucel (hydroxypropylcellulose) (HPC)) was 4 of 10.

As for `O=C1N=C(Oc2ccccc2)SC1=O`, the survivor count by setting is: under setting [3], 8 of 10; under setting [4], 0 of 10.

As for `COc1cccc2c1C(=O)c1c(O)c3c(c(O)c1C2=O)C[C@@](O)(C(C)=O)C[C@@H]3OC1CC(N2CCCCC2)C(O)C(C)O1` (some centres undefined), the T/C (dose: 6.25 mg/kg/injection, schedule: Q01DX001 (ip), vehicle: water) was 127 and 138 % of control. Also, the survivor count is recorded as 10 of 10 (dose: 12.5 mg/kg/injection, schedule: Q01DX001 (ip), vehicle: water) and 7 of 10 (dose: 25.0 mg/kg/injection, schedule: Q01DX001 (ip), vehicle: water).

Regarding `Cc1cc2nc3ccc(N)cc3oc-2cc1=[N+](C)C`, for the setting “dose: 50.0 mg/kg/injection, schedule: Q01DX009 (ip), vehicle: saline”, the survivor count is listed as 9 of 10.

For `c1ccc2c3c(ccc2c1)Sc1ccc2ccccc2c1N3`, the T/C under setting [1] was 128 % of control; the T/C (dose: 200.0 mg/kg/injection, schedule: Q01DX009 (ip), vehicle: saline) was 125 % of control; the T/C (dose: 400.0 mg/kg/injection, schedule: Q01DX009 (ip), vehicle: saline) was 147 % of control.

For `Cc1c(-c2ccc(-c3ccccc3F)cc2)nc2ccc(F)cc2c1C(=O)O`, the T/C was 127 % of control (dose: 12.5 mg/kg/injection, schedule: Q01DX009 (ip), vehicle: water) and 126 % of control under setting [8]. In addition, the survivor count reads like this: (dose: 25.0 mg/kg/injection, schedule: Q01DX009 (ip), vehicle: water) 10 of 10; under setting [8], 10 of 10; (dose: 100.0 mg/kg/injection, schedule: Q01DX009 (ip), vehicle: water) 9 of 10 and 10 of 10.

Regarding `CC(=O)CC(c1ccccc1)c1c(O)c2ccccc2oc1=O` (centres undefined), the T/C (dose: 0.1 mg/kg/injection, schedule: Q01DX009 (ip), vehicle: saline with Tween-80) is 125 % of control. Besides, the survivor count (dose: 0.4 mg/kg/injection, schedule: Q01DX009 (ip), vehicle: saline with Tween-80) is 10 of 10 and the survivor count (dose: 0.8 mg/kg/injection, schedule: Q01DX009 (ip), vehicle: saline with Tween-80) is recorded as 9 of 10.

On to `CC(=O)OC1C(C)OC(OC(=O)C2CCC3C(C2)OC2(CC(OC(=O)/C=C/c4ccccc4)C(C)CO2)C32CO2)C(OC2OC(C)C(O)C(OC(C)=O)C2O)C1O` (centres undefined), for which the T/C was 131 % of control (dose: 6.0 mg/kg/injection, schedule: Q01DX009 (ip), vehicle: saline + alcohol) and 148 % of control (dose: 8.0 mg/kg/injection, schedule: Q01DX009 (ip), vehicle: saline + Tween-80 + alcohol).

Turning to `COc1cccc2c1C(=O)c1c(O)c3c(c(O)c1C2=O)CC(O)(C(=O)CO)CC3OC1CC(N)C(O)C(C)O1` (centres undefined), the T/C runs as follows: (dose: 32.0 mg/kg/injection, schedule: Q01DX001 (ip), vehicle: other) 126 % of control; (dose: 53.3 mg/kg/injection, schedule: Q01DX001 (ip), vehicle: other) 134 % of control. For the same compound, the survivor count was 9 of 10 (dose: 72.0 mg/kg/injection, schedule: Q01DX009 (ip), vehicle: water) and 2 of 10 (dose: 144.0 mg/kg/injection, schedule: Q01DX009 (ip), vehicle: water).

With `Nc1n[nH]c2ccccc12`, the survivor count (dose: 400.0 mg/kg/injection, schedule: Q01DX009 (ip), vehicle: acid diluted with saline) was 9 of 10.

Consider `CC(C)(C)OC(=O)NCCCCC(NC(=O)OCC1c2ccccc2-c2ccccc21)C(=O)O` (centres undefined), for which, under setting [5], the survivor count is reported as 10 of 10.

For `Nc1ccc(C(OC(=O)c2cc3ccccc3c(Cc3c(O)c(C(=O)OC(c4ccc(N)cc4)(c4ccc(N)cc4)c4ccc(N)cc4)cc4ccccc34)c2O)(c2ccc(N)cc2)c2ccc(N)cc2)cc1`, the T/C is, setting by setting: (dose: 1.56 mg/kg/injection, schedule: Q01DX009 (ip), vehicle: saline with Tween-80, evaluated on day 45) 96 % of control; (dose: 1.56 mg/kg/injection, schedule: Q01DX009 (ip), vehicle: saline with Tween-80, evaluated on day 60) 97 and 99 % of control; (dose: 6.25 mg/kg/injection, schedule: Q01DX009 (ip), vehicle: saline with Tween-80, evaluated on day 45) 109 % of control; (dose: 6.25 mg/kg/injection, schedule: Q01DX009 (ip), vehicle: saline with Tween-80, evaluated on day 60) 87 and 104 % of control; (dose: 12.5 mg/kg/injection, schedule: Q01DX009 (ip), vehicle: saline with Tween-80, evaluated on day 45) 106 % of control; (dose: 12.5 mg/kg/injection, schedule: Q01DX009 (ip), vehicle: saline with Tween-80, evaluated on day 60) 118 % of control. In addition, the survivor count reads like this: (dose: 12.5 mg/kg/injection, schedule: Q01DX009 (ip), vehicle: saline with Tween-80) 9 of 10; under setting [6], 5 of 10, 6 of 10, 10 of 10; under setting [7], 3 of 10.
